The results in this text go back to PubChem BioAssay AID248 (DTP/NCI, 2004).

The list shows only some results of the screen, not a fair sample: it gathers tests that were run many times, whatever their T/C, doses with no T/C, and many T/C values between a quarter and a half above the control. Other doses and runs of a compound stand elsewhere. T/C is the treated group as % of the vehicle group. Some doses have a count of surviving animals in place of a T/C: the source holds a T/C of zero for them, seemingly a mark for toxic or unscored doses. Some doses without a T/C left all or most animals alive at the check, yet need not have been tolerated: the source hardly ever lists a survival T/C far under the control, and the zero likely stands for such cases as well. Counts of survivors are from the toxicity check (mostly the fifth day) where no day follows; animals may have died later. Schedules are NCI's codes, read here as Q, the interval in days (D) or hours (H), X, the number of doses. Some structures stand for samples that the source files as different forms (salt, stereo form or complex); doses refer to the form tested. Some doses were run more than once; their values stand side by side, smallest first. For survival time, the PubChem record calls one and a half times the control and up active, and a quarter to a half above the control has no call in these data; cut-offs in other NCI protocols can differ. Some schedules carry Z or #; the key to these is not given. Some T/C values carry the count of animals alive at the toxicity check (mostly the fifth day); where none is given, no animal had died by that day.

For the test, the system named is L1210 leukemia ip in BDF1 mice, survival T/C. The experiment in a line: NCI In Vivo Anticancer Drug Screen. Data for tumor model L1210 Leukemia (intraperitoneal) in B6D2F1 (BDF1) mice. Conditions: T/C endpoint: mean survival time, higher T/C = longer survival.
Setting [1] is: dose: 25.0 mg/kg/injection, schedule: Q01DX009 (ip), vehicle: Klucel (hydroxypropylcellulose) (HPC).
Setting [2] is: dose: 200.0 mg/kg/injection, schedule: Q01DX001 (ip), vehicle: Klucel (hydroxypropylcellulose) (HPC).
Setting [3] is: dose: 400.0 mg/kg/injection, schedule: Q01DX001 (ip), vehicle: Klucel (hydroxypropylcellulose) (HPC).
The mark [4] stands for this setting: dose: 200.0 mg/kg/injection, schedule: Q01DX001 (ip), vehicle: saline.
Setting [5] is: dose: 400.0 mg/kg/injection, schedule: Q01DX001 (ip), vehicle: saline.
The mark [6] stands for this setting: dose: 300.0 mg/kg/injection, schedule: Q01DX001 (ip), vehicle: carboxymethylcellulose (CMC).
The mark [7] stands for this setting: dose: 400.0 mg/kg/injection, schedule: Q01DX009 (ip), vehicle: saline.
Setting [8] is: dose: 100.0 mg/kg/injection, schedule: Q01DX009 (ip), vehicle: Klucel (hydroxypropylcellulose) (HPC).
[9] abbreviates: dose: 200.0 mg/kg/injection, schedule: Q04DX003 (ip), vehicle: saline.
[10] abbreviates: dose: 100.0 mg/kg/injection, schedule: Q04DX003 (ip), vehicle: saline.
Where [11] appears, read: dose: 400.0 mg/kg/injection, schedule: Q04DX003 (ip), vehicle: saline.
Setting [12] is: dose: 400.0 mg/kg/injection, schedule: Q01DX009 (ip), vehicle: Klucel (hydroxypropylcellulose) (HPC).
[13] abbreviates: dose: 200.0 mg/kg/injection, schedule: Q01DX009 (ip), vehicle: Klucel (hydroxypropylcellulose) (HPC).

On to `CCN1CC1`, for which the survivor count under setting [1] was 1 of 6; the survivor count (dose: 35.0 mg/kg/injection, schedule: Q04DX003 (ip), vehicle: Klucel (hydroxypropylcellulose) (HPC)) is recorded as 4 of 6; the survivor count (dose: 55.0 mg/kg/injection, schedule: Q04DX003 (ip), vehicle: Klucel (hydroxypropylcellulose) (HPC)) is 6 of 6; the survivor count (dose: 80.0 mg/kg/injection, schedule: Q04DX003 (ip), vehicle: Klucel (hydroxypropylcellulose) (HPC)) was 0 of 6; the survivor count (dose: 100.0 mg/kg/injection, schedule: Q01DX001 (ip), vehicle: Klucel (hydroxypropylcellulose) (HPC)) is reported as 0 of 6; the survivor count under setting [2] is 0 of 6. Under setting [3], the survivor count was 0 of 6.
As to `CC([NH-])=O.CC([NH-])=O.[Cl][Pt+2][Cl]`, the T/C (dose: 200.0 mg/kg/injection, schedule: Q01DX009 (ip), vehicle: water) is 132 % of control [4 of 6 alive]. Further, the survivor count (dose: 400.0 mg/kg/injection, schedule: Q04DX003 (ip), vehicle: water) was 3 of 6.
Take `COc1cc(C(=O)O)c(Cc2ccccc2)c(OC)c1O`: the survivor count reads like this: (dose: 100.0 mg/kg/injection, schedule: Q01DX001 (ip), vehicle: saline) 4 of 4; under setting [4], 4 of 4; under setting [5], 4 of 4.
Turning to `CCCCCCSC(=O)Nc1ccc(C)c(NC(=O)SCCCCCC)c1`, under “dose: 400.0 mg/kg/injection, schedule: Q04DX003 (ip), vehicle: saline with Tween-80”, the survivor count is reported as 6 of 6.
For `CN(C)CCN(Cc1ccccc1)c1ccccn1`, the survivor count under setting [6] is on record as 0 of 6.
Turning to `CCCCCSc1nc(N)nc2nc[nH]c12`, for the setting “dose: 100.0 mg/kg/injection, schedule: Q01DX Z (ip), vehicle: methylcellulose (MC)”, the T/C was 148 % of control. Besides, the survivor count was 3 of 6 under setting [7]; 2 of 6 (dose: 600.0 mg/kg/injection, schedule: Q01DX009 (ip), vehicle: saline); 1 of 6 (dose: 800.0 mg/kg/injection, schedule: Q01DX009 (ip), vehicle: saline).
`Cc1cc(O)c2c(c1O)C(=O)C13C(=C2O)C(=O)C2C(O)C1C1C(O)C3C(=O)C3=C(O)c4c(O)cc(C)c(O)c4C(=O)C321` (configuration not stated): the survivor count (dose: 50.0 mg/kg/injection, schedule: Q04DX003 (ip), vehicle: saline with Tween-80) was 6 of 6.
Consider `CCC(C)C(CCCCN1CCOCC1)(CNC(=O)CN(CC)CC)c1cccc2ccccc12` (configuration not stated), for which the survivor count reads like this: (dose: 100.0 mg/kg/injection, schedule: Q01DX009 (ip), vehicle: saline) 5 of 6; (dose: 200.0 mg/kg/injection, schedule: Q01DX009 (ip), vehicle: saline) 0 of 6; under setting [7], 0 of 6.
As to `ONC12CC3CC(CC(C3)C1)C2`, the survivor count is listed as 3 of 6 under setting [2] and 0 of 6 under setting [3].
As to `CCN(CC)CCCC(C)Nc1ccnc(/C=C/c2ccc(Br)cc2)c1` (configuration not stated), the survivor count was 6 of 6 (dose: 25.0 mg/kg/injection, schedule: Q04DX003 (ip), vehicle: Klucel (hydroxypropylcellulose) (HPC)); 6 of 6 (dose: 100.0 mg/kg/injection, schedule: Q04DX003 (ip), vehicle: Klucel (hydroxypropylcellulose) (HPC)); 3 of 6 under setting [4]; 1 of 6 under setting [5].
On to `[Cl][Hg][Cl].c1cnccn1`, for which the survivor count by setting is: (dose: 16.0 mg/kg/injection, schedule: Q04DX003 (ip), vehicle: saline with Tween-80) 5 of 6; (dose: 32.0 mg/kg/injection, schedule: Q04DX003 (ip), vehicle: saline with Tween-80) 1 of 6.
For the compound `CC(=O)C(C#N)c1ccccc1` (configuration not stated), the survivor count under setting [8] is on record as 1 of 6.
Regarding `CN(C)c1ccc(C2NC(c3ccccc3)c3c(ccc4ccccc34)O2)cc1` (configuration not stated), under setting [9], the survivor count is 6 of 6.
For the compound `CC1(C)N=C(N)N=C(N)N1c1ccc(CCCC(=O)Nc2cccc(S(=O)(=O)F)c2)cc1`, the survivor count under setting [4] is 1 of 6; the survivor count under setting [5] is 1 of 6 and 2 of 6.
For the compound `CCCN(CCC)C(=O)C(=O)OCC`, the survivor count is on record as 2 of 6 under setting [10], 2 of 6 under setting [9] and 0 of 6 under setting [11].
In the case of `CN1Cc2ccccc2-c2ccccc2C1`, the survivor count is listed as 0 of 6 (dose: 150.0 mg/kg/injection, schedule: Q01DX001 (ip), vehicle: saline) and 0 of 6 (dose: 300.0 mg/kg/injection, schedule: Q01DX001 (ip), vehicle: saline).
Consider `O=[N+]([O-])c1ccc(CBr)cc1`, for which the survivor count reads like this: (dose: 100.0 mg/kg/injection, schedule: Q01DX009 (ip), vehicle: other) 5 of 6; (dose: 200.0 mg/kg/injection, schedule: Q01DX009 (ip), vehicle: other) 0 of 6; (dose: 400.0 mg/kg/injection, schedule: Q01DX009 (ip), vehicle: other) 0 of 6.
With `Cc1ccc(CS)cc1`, the survivor count under setting [12] is 4 of 6.
`O=C(Oc1ccc([N+](=O)[O-])cc1)c1ccc(CBr)cc1`: the survivor count under setting [11] is on record as 0 of 6.
Take `O=C(CCN1CC1)OCCCCOC(=O)CCN1CC1`: under “dose: 10.0 mg/kg/injection, schedule: Q01DX009 (ip), vehicle: saline”, the T/C is 128 % of control. For the same compound, the survivor count is 2 of 6 (dose: 40.0 mg/kg/injection, schedule: Q01DX009 (ip), vehicle: saline); 2 of 6 (dose: 80.0 mg/kg/injection, schedule: Q01DX009 (ip), vehicle: saline); 5 of 6 under setting [10]; 0 of 6 under setting [9]; 0 of 6 under setting [11].
On to `COC(=O)C(C)CSCc1ccccc1` (configuration not stated), for which, where the note is “dose: 200.0 mg/kg/injection, schedule: Q04DX002 (ip), vehicle: saline”, the survivor count is 3 of 3.
As for `Nc1cccc(C(=O)O)c1C(=O)O`, the survivor count is 1 of 6 under setting [6] and 3 of 6 (dose: 400.0 mg/kg/injection, schedule: Q04DX003 (ip), vehicle: Klucel (hydroxypropylcellulose) (HPC)).
In the case of `Oc1cccc[c]1[Hg][Cl]`, the survivor count runs as follows: (dose: 6.0 mg/kg/injection, schedule: Q04DX003 (ip), vehicle: saline) 1 of 6; (dose: 12.0 mg/kg/injection, schedule: Q01DX009 (ip), vehicle: Klucel (hydroxypropylcellulose) (HPC)) 3 of 6; (dose: 12.0 mg/kg/injection, schedule: Q04DX003 (ip), vehicle: saline) 0 of 6; under setting [1], 0 of 6; (dose: 25.0 mg/kg/injection, schedule: Q04DX003 (ip), vehicle: saline) 0 of 6; (dose: 50.0 mg/kg/injection, schedule: Q01DX009 (ip), vehicle: Klucel (hydroxypropylcellulose) (HPC)) 0 of 6. The survivor count was 0 of 6 (dose: 50.0 mg/kg/injection, schedule: Q04DX003 (ip), vehicle: saline); 0 of 6 under setting [8]; 0 of 6 under setting [10]; 0 of 6 under setting [13]; 0 of 6 under setting [9]; 0 of 6 under setting [11].
With `COc1ccc(NC(=O)Nc2cc(Cl)ccc2OC)cc1`, the survivor count runs as follows: under setting [8], 6 of 6; under setting [13], 6 of 6; under setting [12], 6 of 6.
For the compound `O=C(O)c1ccc(F)cc1O`, under setting [5], the survivor count is 0 of 4.
On to `CCN1CCC(c2ccccc2)(c2ccccc2)C1=N`, for which the survivor count reads like this: (dose: 150.0 mg/kg/injection, schedule: Q01DX001 (ip), vehicle: carboxymethylcellulose (CMC)) 0 of 6; under setting [6], 0 of 6.
As for `Cn1c(=O)c2c(nc(OC3CCCC3)n2C)n(C)c1=O`, the survivor count (dose: 400.0 mg/kg/injection, schedule: Q01DX001 (ip), vehicle: other) is reported as 2 of 4.
